These are yes or no findings as the source states them, for the method shown. In cells and extracts the contact can be indirect. Some results given as binding are weak or reduced against the parent protein; the word gives no strength. Where a sequence is shown, tags or fusion partners need not be part of it.
Target: T1, GCM1-Flag (human) (UniProt Q9NP62)
T1 sequence: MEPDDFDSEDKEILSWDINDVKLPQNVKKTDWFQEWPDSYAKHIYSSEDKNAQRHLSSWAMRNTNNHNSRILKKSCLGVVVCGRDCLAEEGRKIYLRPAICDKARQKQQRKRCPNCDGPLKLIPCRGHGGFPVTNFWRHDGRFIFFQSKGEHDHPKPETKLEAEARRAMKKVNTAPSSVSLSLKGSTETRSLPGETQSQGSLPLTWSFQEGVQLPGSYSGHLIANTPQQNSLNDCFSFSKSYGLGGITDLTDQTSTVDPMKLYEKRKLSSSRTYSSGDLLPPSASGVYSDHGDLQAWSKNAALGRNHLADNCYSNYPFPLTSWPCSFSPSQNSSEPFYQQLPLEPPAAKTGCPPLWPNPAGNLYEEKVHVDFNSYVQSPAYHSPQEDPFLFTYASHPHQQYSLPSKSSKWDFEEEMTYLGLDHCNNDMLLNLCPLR
Experiment: co-IP; anti-Flag M2 beads (80 ul) with 1 mg whole-cell lysate of ST cells expressing dox-inducible GCM1-Flag or empty vector; Hunt buffer (20 mM Tris/HCl pH 8.0, 100 mM NaCl, 1 mM EDTA, 0.5% NP-40), overnight at 4°C; TBS washes; western blot

Protein sequences, listed by entry. Tags and fused reporters are not part of them.
UniProt P51532: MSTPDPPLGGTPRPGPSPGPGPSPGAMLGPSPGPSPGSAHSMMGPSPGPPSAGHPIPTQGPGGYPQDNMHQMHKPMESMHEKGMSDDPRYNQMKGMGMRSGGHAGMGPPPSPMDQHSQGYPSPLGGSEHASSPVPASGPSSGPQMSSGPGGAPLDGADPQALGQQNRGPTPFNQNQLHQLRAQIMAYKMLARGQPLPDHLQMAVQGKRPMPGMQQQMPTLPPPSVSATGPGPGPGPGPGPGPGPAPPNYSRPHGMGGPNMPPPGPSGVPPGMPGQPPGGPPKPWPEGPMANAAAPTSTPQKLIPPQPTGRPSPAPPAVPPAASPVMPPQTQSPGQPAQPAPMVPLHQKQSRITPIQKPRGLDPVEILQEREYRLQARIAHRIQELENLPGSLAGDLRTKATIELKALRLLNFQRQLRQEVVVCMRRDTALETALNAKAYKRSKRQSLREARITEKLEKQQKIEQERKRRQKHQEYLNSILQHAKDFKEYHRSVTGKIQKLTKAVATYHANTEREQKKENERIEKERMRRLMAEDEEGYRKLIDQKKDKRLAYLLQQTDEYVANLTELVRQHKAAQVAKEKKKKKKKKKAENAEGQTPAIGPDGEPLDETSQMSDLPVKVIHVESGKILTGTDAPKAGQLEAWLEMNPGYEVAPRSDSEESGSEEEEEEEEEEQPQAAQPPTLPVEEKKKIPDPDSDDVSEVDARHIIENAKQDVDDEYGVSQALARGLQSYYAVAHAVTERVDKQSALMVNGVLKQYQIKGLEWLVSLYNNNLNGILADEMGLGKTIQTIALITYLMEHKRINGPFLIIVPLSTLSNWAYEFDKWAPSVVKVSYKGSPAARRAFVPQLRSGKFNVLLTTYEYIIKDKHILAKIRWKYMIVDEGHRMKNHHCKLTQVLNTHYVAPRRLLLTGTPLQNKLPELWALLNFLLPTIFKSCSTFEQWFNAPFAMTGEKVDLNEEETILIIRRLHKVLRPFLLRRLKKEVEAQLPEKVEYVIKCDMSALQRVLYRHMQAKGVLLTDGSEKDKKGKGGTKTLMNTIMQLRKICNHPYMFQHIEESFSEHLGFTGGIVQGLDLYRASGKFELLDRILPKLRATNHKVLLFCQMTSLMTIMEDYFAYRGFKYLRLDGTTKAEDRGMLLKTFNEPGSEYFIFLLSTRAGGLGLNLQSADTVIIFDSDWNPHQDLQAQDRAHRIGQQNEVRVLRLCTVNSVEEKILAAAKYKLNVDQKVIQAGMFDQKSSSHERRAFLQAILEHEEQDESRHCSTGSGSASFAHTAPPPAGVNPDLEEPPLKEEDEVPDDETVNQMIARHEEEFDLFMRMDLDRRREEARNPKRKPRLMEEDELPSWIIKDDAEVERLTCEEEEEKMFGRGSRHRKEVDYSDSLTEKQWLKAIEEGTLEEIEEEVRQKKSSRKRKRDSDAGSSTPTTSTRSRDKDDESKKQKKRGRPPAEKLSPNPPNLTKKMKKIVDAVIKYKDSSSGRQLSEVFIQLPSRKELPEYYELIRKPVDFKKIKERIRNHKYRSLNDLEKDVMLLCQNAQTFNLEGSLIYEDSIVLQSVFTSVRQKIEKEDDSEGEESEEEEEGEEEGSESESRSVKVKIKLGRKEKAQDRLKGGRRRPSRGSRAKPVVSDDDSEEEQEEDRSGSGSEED

- binding: binds
Substance: BRG1 (SMARCA4) (from UniProt P51532 1-1647) (enzyme)
